The record followed here is PubChem BioAssay AID493014 (National Center for Advancing Translational Sciences (NCATS), 2011).

Usually AC50 stands for the midpoint of the concentration-response curve, whichever way the signal moves.

The list shows a part of the results. Further columns of the screen follow, without active or inactive calls. Compounds called inactive in the main read-out are mostly missing here. Words in brackets tell the shape of the fitted curve; partial curves, single points and poor fits give uncertain potencies.

The nature of this assay: qHTS Assay to Find Inhibitors of Chronic Active B-Cell Receptor Signaling. The note with it: ABC-DLBCL IkBa-CBG/CBR reporter, luminescence ratio (green luciferase fused to IkBa over red control in TMD8 lymphoma cells), 4 h. A digest of the protocol:
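Concentration-response series (up to 46 uM) were applied to TMD8 dual-reporter cells for 4 h at 37C with doxycycline. Green/red ratio, after filter-overlap correction, defined %Activity; red signal alone was normalised to basal cells and zero luminescence.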

Setting [1] is: measured here: CBR red luminescence, cell number.
Where [2] appears, read: measured here: IkBa-CBG green luminescence.

Consider `Cc1ccccc1NC(=S)NCc1ccc2[nH]c3c(c2c1)CCCC3`, for which the AC50 is, setting by setting: under setting [1], 8.2 µM [rising, partial curve]; under setting [2], 10.3 µM [falling, partial curve]. `Cc1ccccc1Cn1cc(NC(=O)c2cc(-c3ccco3)on2)cn1`: under setting [1], the AC50 was 5.01 µM [falling, partial curve, poor fit]. The same measure, in the same setting: in the case of `Cn1c(=O)c2c(SCC(=O)Nc3nccs3)nc(C3CC3)nc2n(C)c1=O` it was 20 µM [rising, partial curve, poor fit]; in that of `COc1ccccc1-c1nc(-c2ccc(Br)cc2)no1`, 2.82 µM [falling, full curve, poor fit]. Still for that read-out and setting: in the case of `CCc1ccc(-c2cnc3ccccc3n2)cc1NC(=O)CNC(=O)c1ccccc1` it was 0.562 µM [rising, full curve, poor fit]; in that of `Cc1ccc(S(=O)(=O)NCCCNS(=O)(=O)c2ccccc2Br)cc1`, 32.6 µM [rising, partial curve, poor fit]; in that of `Nc1ccc(C(=O)OCCc2ccccc2)cc1`, 29.1 µM [falling, single point]. Same read-out and setting: in the case of `CC(C)(C)NC(=O)c1cccc(NC(=O)c2ccc3c(c2)C(=O)N(C(C)(C)C)C3=O)c1` it was 2.82 µM [falling, full curve, poor fit]; in that of `COc1ccc(/C=C/c2nnc(NC(=O)CSc3ccc(C)cc3)s2)cc1`, 14.1 µM [falling, single point]. With `COc1cc(-c2nc(-c3cccnc3)no2)cc(OC)c1OC`, the AC50 under setting [1] is 8.2 µM [rising, partial curve]. On the same count and under the same terms, under `Cc1ccccc1C(=O)Nc1nnc(-c2ccc(F)cc2)o1` stands 3.26 µM [falling, partial curve]. The same measure, in the same setting: under `Cc1noc(NS(=O)(=O)c2ccc(N/C=C/C(=O)c3ccccc3)cc2)c1C` stands 4.61 µM [rising, single point]. The same measure, in the same setting: under `NNC(=O)c1cc(Cl)ccc1Cl` stands 3.26 µM [falling, partial curve, poor fit]; under `CCSc1nnc(NC(=O)C2CC2c2ccccc2)s1` (configuration not stated), 6.51 µM [rising, single point]; under `Cc1c(Cl)cccc1NC(=O)c1ccc(-n2ccnc2)nc1`, 10 µM [falling, partial curve]. As for `C=CS(=O)(=O)c1sc(Cl)c(N2CCOCC2)c1[N+](=O)[O-]`, the AC50 under setting [1] is 20 µM [falling, partial curve, poor fit]. `O=C(N/N=C/c1ccc(O)cc1)c1csc2ccccc12`: under setting [1], the AC50 is 2.82 µM [falling, partial curve, poor fit]. The same measure, in the same setting: in the case of `Cc1ccnc(N2CCCC(C(=O)Nc3nnc(C)s3)C2)n1` (configuration not stated) it was 5.62 µM [rising, single point]. `COc1ccc(N(CCC(=O)O)S(=O)(=O)c2ccc(C)c(C)c2)cc1`: the AC50 under setting [2] is 22.4 µM [rising, partial curve, poor fit]. Turning to `COc1ccc(NS(=O)(=O)c2cn(C)nc2C)cc1`, the AC50 under setting [1] is 12.6 µM [falling, partial curve, poor fit]. Consider `O=C(NC1=NCCS1)c1ccc(-c2ccc(Cl)cc2)o1`, for which the AC50 under setting [1] was 14.6 µM [falling, single point]. For `CC1CCCN(c2ccc3nncn3n2)C1` (configuration not stated), under setting [1], the AC50 was 35.5 µM [rising, single point]. In the case of `COc1ccc(CN2C(=O)CSC2c2ccccn2)cc1` (configuration not stated), under setting [1], the AC50 is 2.82 µM [rising, partial curve, poor fit].

`CCOc1ccc(NC(=O)c2sc3nc(C)nc(N4CCOCC4)c3c2C)cc1`: the AC50 under setting [1] is 1.41 µM [rising, full curve, poor fit]. Same read-out and setting: under `Oc1cccc(Oc2ncc(C(F)(F)F)cc2Cl)c1` stands 22.4 µM [rising, single point]. Still for that read-out and setting: under `CC(=O)Oc1ccc2nc(/C=C/c3ccc(C=O)cc3)oc(=O)c2c1` stands 11.2 µM [falling, partial curve]; under `O=S(=O)(NCCc1ccccc1)c1ccc(F)cc1`, 7.08 µM [rising, full curve, poor fit]; under `Cc1nc2ccccn2c1C(=O)c1ccccc1`, 20.6 µM [rising, single point]. With `O=[N+]([O-])c1ccc(Oc2cccc3cccnc23)c([N+](=O)[O-])c1`, the AC50 under setting [1] was 29.1 µM [rising, single point] and the AC50 under setting [2] is 29.1 µM [falling, single point]. Consider `O=C(COC(=O)c1n[nH]c2ccccc12)c1ccc(F)c(F)c1`, for which the AC50 under setting [1] was 10.3 µM [falling, partial curve, poor fit]. Still for that read-out and setting: in the case of `CC(C)[C@H](NC(=O)OCc1ccccc1)C(=O)OCC(=O)Nc1c(F)cccc1F` it was 29.1 µM [rising, partial curve, poor fit]; in that of `CCN(CC)S(=O)(=O)c1ccc(Cl)c(NC(=O)COC(=O)c2ccc(O)cc2)c1`, 4.47 µM [falling, partial curve, poor fit]; in that of `C=CCC[C@@H](Cc1ccc(F)cc1)C(=O)OC[C@H](Cc1c[nH]c2ccccc12)NC(=O)[C@H](CC=C)CC(=O)NCCO`, 18.4 µM [falling, single point]. Turning to `CSc1cccc(NC(=O)CSc2nc3ccccc3o2)c1`, the AC50 under setting [1] was 35.5 µM [falling, single point]. Still for that read-out and setting: under `COc1ccccc1-c1cc(C(F)(F)F)nc(S(=O)(=O)CCCC(=O)N2CCCCC2C)n1` (configuration not stated) stands 5.01 µM [falling, partial curve]; under `CC1S/C(=N/N=C/c2cccc([N+](=O)[O-])c2)NC1=O` (configuration not stated), 17.8 µM [rising, single point]; under `O=C(NCCc1ccccc1)C1CCC(CNc2c(N3CCCCC3)c(=O)c2=O)CC1` (configuration not stated), 10.3 µM [rising, partial curve]. The same measure, in the same setting: under `COc1ccc2nc(N(Cc3cccnc3)C(=O)CCc3ccccc3)sc2c1` stands 2 µM [rising, partial curve]. The same measure, in the same setting: in the case of `OC(CN1C2=NCCCN2c2ccccc21)c1ccc(Br)cc1` (configuration not stated) it was 13 µM [falling, partial curve, poor fit]; in that of `CSc1nc(N2CCN(C)CC2)c2c(c1C#N)CC(C)(C)OC2`, 3.16 µM [rising, full curve, poor fit]; in that of `CCCCCc1ccc(OCCCC[n+]2ccc(C)cc2)c(CCCCC)c1`, 5.62 µM [falling, partial curve, poor fit]. For the compound `COc1cc2oc(-c3ccc(O)cc3)cc(=O)c2c(OC)c1O`, the AC50 under setting [2] was 10 µM [falling, partial curve, poor fit]. In the case of `Cc1oc(-c2ccc3c(c2)OCCO3)cc1C(=O)NCC(=O)O`, under setting [1], the half-maximal activity concentration (AC50) was 35.5 µM [falling, single point].

On to `COc1cc(CNc2ccc3c(c2)CCC3)cc(OC)c1O`, for which, under setting [1], the AC50 is 23.1 µM [rising, single point]. On the same count and under the same terms, in the case of `O=C(O)c1ccc(-n2nc(-c3ccccc3)c3ccccc3c2=O)cc1` it was 20 µM [falling, single point]; in that of `CC(/C=N/N1CCN(c2ccccc2)CC1)=C\c1ccco1`, 3.98 µM [rising, full curve]; in that of `CCOc1ccc(NC(=O)CN2CCCC2c2cccs2)cc1S(=O)(=O)N1CCCCC1` (configuration not stated), 5.8 µM [falling, single point]. On the same count and under the same terms, in the case of `COc1ccc(-c2c(C)nn3c(C)cc(C)nc23)cc1` it was 11.2 µM [falling, partial curve, poor fit].

Take `CCN(CC)S(=O)(=O)c1ccc(C(=O)N2CCCCC2)cc1`: the AC50 under setting [1] was 16.4 µM [rising, partial curve]. The same measure, in the same setting: in the case of `Cc1csc(NC(=O)CSc2nnc(-c3ccoc3C)n2C(C)c2ccccc2)n1` (configuration not stated) it was 15.8 µM [falling, single point]; in that of `CC(=C/C(=O)O)/C(=C\c1ccc(Br)o1)C(=O)O`, 0.398 µM [rising, full curve, poor fit]. Still for that read-out and setting: under `COCCn1c(C)cc(C(=O)CSc2ccc(NC(C)=O)cc2)c1C` stands 10 µM [rising, single point].

Turning to `N#Cc1ccc(NC(=S)NC(=O)C2CCCCC2)cc1`, the AC50 under setting [1] was 0.411 µM [rising, partial curve, poor fit]. Same read-out and setting: in the case of `COc1ccc(-n2c(CNC(=O)COc3ccc(Cl)cc3Cl)n[nH]c2=S)cc1` it was 22.4 µM [falling, single point]. The same measure, in the same setting: in the case of `O=C(CN1C(=O)NC2(CCc3ccccc32)C1=O)c1ccc(F)c(F)c1` (configuration not stated) it was 2.31 µM [falling, partial curve, poor fit]; in that of `CC(C)Nc1ccc(-n2nc3ccccc3[n+]2[O-])cc1`, 10 µM [falling, partial curve]; in that of `Nc1c(SCCC(=O)O)ccc2c1C(=O)c1ccccc1C2=O`, 0.282 µM [falling, full curve, poor fit]. Same read-out and setting: in the case of `O=C(CN1C(=O)C2CCCCC2C1=O)Nc1cc([N+](=O)[O-])ccc1F` (configuration not stated) it was 0.0731 µM [rising, full curve, poor fit]; in that of `COc1ccc(C2c3ccc4ccccc4c3Oc3ncn(CCCN(C)C)c(=N)c32)cc1` (configuration not stated), 15.8 µM [falling, single point]; in that of `CC(=O)Nc1ccc(NC(=O)CSC2=NS(=O)(=O)c3cc(Cl)ccc3N2)cc1`, 6.51 µM [falling, partial curve]. As to `Cc1ccc(COc2ccsc2C(=O)NN)cc1`, the AC50 under setting [1] was 14.1 µM [falling, single point]. Still for that read-out and setting: under `CCCn1nc(NC(=O)C2CCCO2)c2cc3cccc(C)c3nc21` (configuration not stated) stands 0.501 µM [falling, full curve, poor fit]. Same read-out and setting: under `COc1cccc(NC(=O)c2ccc3c(O)c(S(=O)(=O)c4ccccc4)c(=O)[nH]c3c2)c1` stands 35.5 µM [falling, partial curve, poor fit]. Same read-out and setting: under `Cn1c(SCC(=O)c2ccc(O)c(O)c2)nnc1-c1ccccc1` stands 10 µM [falling, partial curve]. In the case of `N#CCSc1nccc(/C=C/c2ccccc2)n1`, under setting [1], the AC50 is 2 µM [rising, partial curve, poor fit].
